Drawing on publication PMC9513783, this text covers binding for five molecules.

Sequences of proteins named here, by UniProt entry; tags and fusion partners are left off.
UniProt P68871: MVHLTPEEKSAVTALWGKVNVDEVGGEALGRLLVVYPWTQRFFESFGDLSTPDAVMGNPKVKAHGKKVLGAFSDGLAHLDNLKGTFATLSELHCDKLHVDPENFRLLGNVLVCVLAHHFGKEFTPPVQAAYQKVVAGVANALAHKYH
UniProt O14744: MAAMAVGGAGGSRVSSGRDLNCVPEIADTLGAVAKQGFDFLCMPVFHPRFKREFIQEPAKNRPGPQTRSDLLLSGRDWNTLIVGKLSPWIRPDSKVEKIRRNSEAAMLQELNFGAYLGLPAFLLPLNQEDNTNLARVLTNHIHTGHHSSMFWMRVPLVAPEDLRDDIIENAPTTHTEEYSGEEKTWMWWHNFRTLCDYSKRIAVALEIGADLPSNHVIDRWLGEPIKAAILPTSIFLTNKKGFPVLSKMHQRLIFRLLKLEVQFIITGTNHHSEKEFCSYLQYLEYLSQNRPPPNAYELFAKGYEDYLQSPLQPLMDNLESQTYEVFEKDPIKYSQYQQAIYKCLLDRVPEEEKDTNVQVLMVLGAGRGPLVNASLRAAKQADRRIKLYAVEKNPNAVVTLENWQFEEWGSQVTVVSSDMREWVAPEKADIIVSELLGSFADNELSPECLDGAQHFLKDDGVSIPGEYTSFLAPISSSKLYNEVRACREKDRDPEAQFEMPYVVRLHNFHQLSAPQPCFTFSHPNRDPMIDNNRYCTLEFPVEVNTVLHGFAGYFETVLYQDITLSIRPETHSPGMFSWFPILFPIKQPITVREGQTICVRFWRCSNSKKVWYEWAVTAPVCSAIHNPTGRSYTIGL
UniProt P52732: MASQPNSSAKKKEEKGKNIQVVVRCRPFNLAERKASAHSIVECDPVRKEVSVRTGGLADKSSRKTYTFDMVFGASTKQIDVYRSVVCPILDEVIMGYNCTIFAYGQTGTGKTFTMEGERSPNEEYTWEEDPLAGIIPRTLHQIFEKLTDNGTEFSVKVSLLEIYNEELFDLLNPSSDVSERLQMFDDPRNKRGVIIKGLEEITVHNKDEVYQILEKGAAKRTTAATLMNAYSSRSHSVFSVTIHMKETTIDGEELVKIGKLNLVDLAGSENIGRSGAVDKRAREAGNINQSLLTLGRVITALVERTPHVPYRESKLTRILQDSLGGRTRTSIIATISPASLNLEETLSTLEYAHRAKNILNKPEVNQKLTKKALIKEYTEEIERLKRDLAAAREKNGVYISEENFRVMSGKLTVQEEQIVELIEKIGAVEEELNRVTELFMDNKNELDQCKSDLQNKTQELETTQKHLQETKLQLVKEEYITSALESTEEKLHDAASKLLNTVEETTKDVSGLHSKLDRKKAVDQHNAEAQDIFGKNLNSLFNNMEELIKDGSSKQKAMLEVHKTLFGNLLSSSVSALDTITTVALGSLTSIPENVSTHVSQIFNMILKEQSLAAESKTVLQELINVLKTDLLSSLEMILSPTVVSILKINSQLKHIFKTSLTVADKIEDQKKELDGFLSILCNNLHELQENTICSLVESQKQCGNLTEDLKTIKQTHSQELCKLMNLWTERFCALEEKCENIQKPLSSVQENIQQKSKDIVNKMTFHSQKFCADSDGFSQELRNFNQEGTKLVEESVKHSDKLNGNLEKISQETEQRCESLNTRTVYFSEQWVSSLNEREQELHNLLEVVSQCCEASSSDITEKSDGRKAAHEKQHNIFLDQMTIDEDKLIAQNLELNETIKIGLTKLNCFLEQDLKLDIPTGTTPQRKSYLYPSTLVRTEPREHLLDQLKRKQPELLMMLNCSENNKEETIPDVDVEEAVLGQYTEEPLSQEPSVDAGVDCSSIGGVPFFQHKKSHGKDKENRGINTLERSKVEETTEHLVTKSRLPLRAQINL

No constants are given. Whether binding was seen depends on the method and setting. Binding seen in cells or lysates may run through a third protein. A yes stands for co-enrichment or nearness to the bait. Other partners may have been found. Tags and fused reporters may be left off the sequences shown.

This assay has as its target T1, Flag-tagged EWSR1(2-325)-ATF1(66-271) fusion (UniProt Q01844).
T1 sequence: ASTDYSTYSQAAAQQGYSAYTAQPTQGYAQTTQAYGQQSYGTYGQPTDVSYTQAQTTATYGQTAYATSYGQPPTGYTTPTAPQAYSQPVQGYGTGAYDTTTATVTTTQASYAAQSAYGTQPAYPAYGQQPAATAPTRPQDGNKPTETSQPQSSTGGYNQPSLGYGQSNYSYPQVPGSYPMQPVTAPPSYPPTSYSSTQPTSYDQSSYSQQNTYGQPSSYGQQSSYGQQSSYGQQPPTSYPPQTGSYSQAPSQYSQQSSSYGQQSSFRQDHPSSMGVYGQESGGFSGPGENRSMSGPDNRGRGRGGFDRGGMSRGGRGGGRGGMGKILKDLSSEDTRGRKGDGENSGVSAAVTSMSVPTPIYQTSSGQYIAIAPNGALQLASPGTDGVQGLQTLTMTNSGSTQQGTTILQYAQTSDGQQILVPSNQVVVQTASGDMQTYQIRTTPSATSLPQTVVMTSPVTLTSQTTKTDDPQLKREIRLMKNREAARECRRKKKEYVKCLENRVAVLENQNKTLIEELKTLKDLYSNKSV
Nature of the assay: affinity purification with mass spectrometry; Flag-EWSR1-ATF1 expressed in HEK 293T; lysis buffer A (50 mM Tris, 5 mM EDTA, 150 mM NaCl, 1 mM DTT, 0.5% Nonidet P-40, pH 8.0); IP with anti-Flag (M2) or mouse IgG overnight at 4 C, protein A/G agarose; eluted with 1% SDS in PBS; LC-MS/MS.

For the molecule HBB (from UniProt P68871 1-147), the binding entry is listed as “binds”. The value for “protein arginine methyltransferase 5 (from UniProt O14744 1-637) (enzyme)” was “binds”; that for KIF11 (from UniProt P52732 1-1056) was “binds”.

B1: PTGES3 (protein, UniProt Q15185 1-160)
chain: MQPASAKWYDRRDYVFIEFCVEDSKDVNVNFEKSKLTFSCLGGSDNFKHLNEIDLFHCIDPNDSKHKRTDRSILCCLRKGESGQSWPRLTKERAKLNWLSVDFNNWKDWEDDSDEDMSNFDRFSEMMNNMGGDEDVDLPEVDGADDDSQDSDDEKMPDLE
For B1, the binding result is “binds”.

B2: PPM1B (protein, UniProt O75688 1-479)
chain: MGAFLDKPKTEKHNAHGAGNGLRYGLSSMQGWRVEMEDAHTAVVGIPHGLEDWSFFAVYDGHAGSRVANYCSTHLLEHITTNEDFRAAGKSGSALELSVENVKNGIRTGFLKIDEYMRNFSDLRNGMDRSGSTAVGVMISPKHIYFINCGDSRAVLYRNGQVCFSTQDHKPCNPREKERIQNAGGSVMIQRVNGSLAVSRALGDYDYKCVDGKGPTEQLVSPEPEVYEILRAEEDEFIILACDGIWDVMSNEELCEYVKSRLEVSDDLENVCNWVVDTCLHKGSRDNMSIVLVCFSNAPKVSDEAVKKDSELDKHLESRVEEIMEKSGEEGMPDLAHVMRILSAENIPNLPPGGGLAGKRNVIEAVYSRLNPHRESDGASDEAEESGSQGKLVEALRQMRINHRGNYRQLLEEMLTSYRLAKVEGEESPAEPAATATSSNSDAGNPVTMQESHTESESGLAELDSSNEDAGTKMSGEKI
In the case of B2, the binding entry is listed as “binds”.
